From patent publication US20210379040A1, “COMBINATION TREATMENT OF LIVER DISORDERS” (Terns Pharmaceuticals, Inc., priority 2020, published 2021)

Test system: FXR-regulated gene expression in liver and ileum
Assay: Mechanism of action: tissue RNA by RT-qPCR and RNAseq after single oral dose
Settings: C57BL/6 mice liver RNAseq, 10 mg/kg Compound 1, 30 mg/kg OCA

Cn1cc(C(=O)O)c2ccc(N3CCC(OCc4c(-c5c(Cl)cccc5Cl)noc4C4CC4)CC3)cc21 [Compound 1] was tested, and the “number of differentially expressed (NASH-related) genes modulated relative to vehicle control” value (6 hours after single oral dose, fold change ≥1.5) was 500 and the “number of global pathways enriched” value (p<0.05) was 32.
